Data published in patent US9066861B2 (priority 2009, dated 2015).
At least one compound was matched to its structure with a doubt left.

Assay: Assay (%) test of APIs in cream, stability study, HPLC method
Format: physicochemical
Conditions: in cream Batch No. SFD-01
Experimental: The stability of the product is confirmed by the stability studies performed for 3/6 months as per ICH guidelines.
APIs-stability experiments were carried out (see tables 3-20) using several products that are representative of the present invention. Tests were carried out to observe (or measure as appropriate) the physical appearance of the product, the pH value and assay of the APIs over a period of time. […] Betamethasone Valerate—0.12% (w/w) • ii. Fluticasone Propionate—0.05% (w/w) • iii. Mometasone Furoate—0.1% (w/w) • iv. Dexamethasone Acetate—0.1% (w/w) • v. Hydrocortisone Acetate—1.0% (w/w) • vi. Clobetasol Propionate—0.05% (w/w) • vii. Beclomethasone Dipropionate—0.025% (w/w) • viii. Betamethasone Dipropionate—0.05% (w/w) wherein all percentages are with respect to the final formulation.
The product used for the Stability Studies tests contained approximately 10% extra APIs (overages).

With `CC(=O)OCC(=O)[C@@]1(O)[C@H](C)C[C@H]2[C@@H]3CCC4=CC(=O)C=C[C@]4(C)[C@@]3(F)[C@@H](O)C[C@@]21C` [Dexamethasone Acetate] the “Assay (%)” value (25° C. 60% RH, 1st Month) was 108.14%, the “Assay (%)” value (25° C. 60% RH, 2nd Month) was 108.11% and the “Assay (%)” value (25° C. 60% RH, 3rd Month) was 108.10%. The “Assay (%)” value (30° C. 65% RH, 1st Month) was 108.14%, the “Assay (%)” value (30° C. 65% RH, 2nd Month) was 108.12% and the “Assay (%)” value (30° C. 65% RH, 3rd Month) was 108.09%. For the same compound, the “Assay (%)” value (40° C. 75% RH, 1st Month) was 108.14%, the “Assay (%)” value (40° C. 75% RH, 2nd Month) was 108.12% and the “Assay (%)” value (40° C. 75% RH, 3rd Month) was 108.05%. The “Assay (%)” value (Freezthaw, 1st Month) was 107.84%, the “Assay (%)” value (Initial) was 108.15% and the “Assay (%)” value (Temperature cycling, 1st Month) was 107.68%.
